Results are given in words; binding and its absence hold for the method and conditions named. Binding seen in cells or lysates may run through a third protein. Some binding calls cover weakened binding; strength is not graded here.
Columns and labels:
[1] = biological target: human type 1 cannabinoid receptor-green fluorescent protein2 C-terminal fusion protein (human) (UniProt P21554); experiment: FRET or BRET; BRET2 in HEK293A cells co-expressing receptor-GFP2 and βarrestin1-Rluc, 48 h after transfection, in BRET buffer, coelenterazine 400a 50 μM; cells treated 30 min with 1 nM-10 μM CP55940 ± 1 μM indomethacin, or 1 nM-10 μM indomethacin ± 500 nM CP55940; data as % of the maximal response to CP55940
[2] = biological target: human type 2 cannabinoid receptor-green fluorescent protein2 C-terminal fusion protein (human) (UniProt P34972); experiment: as above
[3] = biological target: human CB1R stably expressed in PathHunter (βarrestin2) CHO-K1 cells (human) (UniProt P21554); experiment: split reporter; DiscoveRx PathHunter βarrestin2 assay in hCB1R CHO-K1 cells, ligands (CP55940, AEA, indomethacin, 100 nM CP55940 or AEA + indomethacin) 90 min at 37°C, chemiluminescence; data as % of the maximal response to CP55940

The chains behind the UniProt entries cited, without tags or fusion partners.
UniProt P21554: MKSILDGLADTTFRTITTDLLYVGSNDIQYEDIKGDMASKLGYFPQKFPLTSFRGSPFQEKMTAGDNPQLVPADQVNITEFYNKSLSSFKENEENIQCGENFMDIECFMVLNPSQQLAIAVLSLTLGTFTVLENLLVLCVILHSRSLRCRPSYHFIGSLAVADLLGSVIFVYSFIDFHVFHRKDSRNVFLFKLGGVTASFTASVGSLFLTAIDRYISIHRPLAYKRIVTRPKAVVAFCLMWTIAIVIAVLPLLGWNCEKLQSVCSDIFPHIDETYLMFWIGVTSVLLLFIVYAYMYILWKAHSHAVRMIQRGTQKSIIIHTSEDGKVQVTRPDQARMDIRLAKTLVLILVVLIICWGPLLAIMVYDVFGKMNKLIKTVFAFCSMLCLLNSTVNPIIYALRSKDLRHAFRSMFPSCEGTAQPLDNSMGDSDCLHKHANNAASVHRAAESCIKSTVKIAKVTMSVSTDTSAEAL
UniProt P34972: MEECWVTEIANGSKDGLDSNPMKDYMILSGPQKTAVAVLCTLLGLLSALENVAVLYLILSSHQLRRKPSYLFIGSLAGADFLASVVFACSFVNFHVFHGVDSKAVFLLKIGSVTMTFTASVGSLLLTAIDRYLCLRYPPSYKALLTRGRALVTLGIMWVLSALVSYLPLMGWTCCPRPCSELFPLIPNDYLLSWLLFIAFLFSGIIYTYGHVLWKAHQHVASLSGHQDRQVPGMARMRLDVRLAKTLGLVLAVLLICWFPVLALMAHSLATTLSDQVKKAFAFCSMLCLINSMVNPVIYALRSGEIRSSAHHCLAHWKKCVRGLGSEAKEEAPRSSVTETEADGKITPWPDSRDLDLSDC
UniProt P49407: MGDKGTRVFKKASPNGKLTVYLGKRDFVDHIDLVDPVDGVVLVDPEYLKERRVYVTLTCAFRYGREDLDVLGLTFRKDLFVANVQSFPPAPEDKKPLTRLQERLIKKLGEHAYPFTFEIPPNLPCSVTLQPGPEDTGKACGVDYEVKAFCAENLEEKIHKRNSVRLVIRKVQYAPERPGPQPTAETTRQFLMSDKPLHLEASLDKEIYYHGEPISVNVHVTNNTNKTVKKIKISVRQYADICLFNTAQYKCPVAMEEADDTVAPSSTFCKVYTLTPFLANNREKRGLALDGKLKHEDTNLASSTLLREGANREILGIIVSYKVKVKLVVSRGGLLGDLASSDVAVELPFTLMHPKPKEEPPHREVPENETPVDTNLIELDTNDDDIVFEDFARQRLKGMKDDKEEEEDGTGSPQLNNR
UniProt P32121: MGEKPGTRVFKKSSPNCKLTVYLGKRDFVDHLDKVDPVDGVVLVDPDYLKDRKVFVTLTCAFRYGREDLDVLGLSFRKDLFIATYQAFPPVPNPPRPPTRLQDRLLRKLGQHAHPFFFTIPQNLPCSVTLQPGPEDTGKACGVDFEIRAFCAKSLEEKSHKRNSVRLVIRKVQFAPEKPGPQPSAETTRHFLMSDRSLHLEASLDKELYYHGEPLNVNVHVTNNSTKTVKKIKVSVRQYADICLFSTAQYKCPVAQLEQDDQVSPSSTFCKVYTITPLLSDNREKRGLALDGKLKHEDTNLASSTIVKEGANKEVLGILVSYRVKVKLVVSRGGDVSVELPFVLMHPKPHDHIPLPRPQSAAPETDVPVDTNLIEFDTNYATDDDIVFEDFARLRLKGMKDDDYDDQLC

| binding [1] | binding [2] | binding [3] | Substance |
| --- | --- | --- | --- |
| binds | binds | – | human βarrestin1-Renilla luciferase II C-terminal fusion protein (from UniProt P49407 1-418) |
| – | – | binds | βarrestin2 of the PathHunter CHO-K1 cells (from UniProt P32121 1-409) |

— article PMC6813218 (Frontiers in Molecular Neuroscience, 2019)
